Measured values as given in PubChem BioAssay AID330 (DTP/NCI, 2004).
The list does not hold the whole screen: it is rich in T/C values a quarter to a half above the control, in often repeated tests (any T/C) and in doses without a T/C. Other doses and runs of a compound stand elsewhere. T/C is the treated group as % of the vehicle group. Some entries give survivors of the animals treated and no T/C: the source holds a T/C of zero for them, seemingly a mark for toxic or unscored doses. Some doses without a T/C left all or most animals alive at the check, yet need not have been tolerated: the source hardly ever lists a survival T/C far under the control, and the zero likely stands for such cases as well. Survivors were counted at the toxicity check, usually on the fifth day, unless a day is given; later deaths do not show. Schedule codes are those of the source, taken here to give the interval after Q, in days (D) or hours (H), and the number of doses after X. Some entries were tested several times; the results are listed from low to high. For survival time, this PubChem deposit counts one and a half times the control or more as active, and values a quarter to a half above the control carry no call in these data; other NCI protocols may use other cut-offs.

System: P388 leukemia ip, CD2F1 mice, survival T/C
Experiment: NCI In Vivo Anticancer Drug Screen. Data for tumor model P388 Leukemia (intraperitoneal) in CD2F1 (CDF1) mice
Settings: T/C endpoint: median survival time, higher T/C = longer survival
[1] = dose: 200.0 mg/kg/injection, schedule: Q01DX005 (ip), vehicle: saline
[2] = dose: 200.0 mg/kg/injection, schedule: Q01DX009 (ip), vehicle: saline with Tween-80
[3] = dose: 100.0 mg/kg/injection, schedule: Q01DX001 (ip), vehicle: saline with Tween-80
[4] = dose: 200.0 mg/kg/injection, schedule: Q01DX005 (ip), vehicle: saline with Tween-80
[5] = dose: 50.0 mg/kg/injection, schedule: Q01DX009 (ip), vehicle: saline with Tween-80
[6] = dose: 100.0 mg/kg/injection, schedule: Q01DX009 (ip), vehicle: saline with Tween-80
[7] = dose: 100.0 mg/kg/injection, schedule: Q01DX005 (ip), vehicle: saline with Tween-80

`COC1(OC)C=NNc2nncn21` was tested, and the T/C [1] was 126 % of control.

With `CCCCC(CCCC)=NNC(=S)SC` the survivor count [2] was 1 of 6.

In the case of `CC(=O)Nc1ccc(SSc2ccc(NC(C)=O)s2)s1`, the survivor count [3] is reported as 5 of 6 and 6 of 6 and the survivor count (dose: 200.0 mg/kg/injection, schedule: Q01DX001 (ip), vehicle: saline with Tween-80) is reported as 4 of 6.

With `COc1ccc(OC(=O)/C=C/c2ccccc2)cc1` the survivor count (dose: 42.5 mg/kg/injection, schedule: Q04DX002 (ip), vehicle: saline with Tween-80) was 3 of 6 and the survivor count (dose: 170.0 mg/kg/injection, schedule: Q04DX002 (ip), vehicle: saline with Tween-80) was 6 of 6.

For `O=C(O)c1c2ccccc2nc2[nH]c(=O)[nH]c(=O)c12`, the survivor count (dose: 200.0 mg/kg/injection, schedule: Q01DX005 (ip), vehicle: Klucel (hydroxypropylcellulose) (HPC)) was 3 of 6.

`CN(C)CCCNC(=O)NCCCCCCNC(=O)NCCCN(C)C` was tested, and the survivor count [4] was 5 of 5.

`CCC(=O)CC(O)CC(C)CC(NC(=O)C1CC(C)CN1C(=O)/C=C/C(C)CC)C(=O)NC(C(=O)NC(C)(C)C(=O)NC(CC(C)C)C(=O)NC(CC(C)C)C(=O)NC(C)(C)C(=O)NC(C)(C)C(=O)NCCC(=O)NC(C)CN(C)C)C(O)C(C)C` (stereo not drawn) was tested, and the survivor count (dose: 0.75 mg/kg/injection, schedule: Q01DX005 (ip), vehicle: saline + alcohol) was 0 of 6, the survivor count (dose: 1.5 mg/kg/injection, schedule: Q01DX005 (ip), vehicle: saline + alcohol) was 0 of 6 and the survivor count (dose: 3.0 mg/kg/injection, schedule: Q01DX005 (ip), vehicle: saline + alcohol) was 0 of 6. For the same molecule, the survivor count (dose: 6.0 mg/kg/injection, schedule: Q01DX005 (ip), vehicle: saline + alcohol) was 0 of 6 and the survivor count (dose: 12.0 mg/kg/injection, schedule: Q01DX005 (ip), vehicle: saline + alcohol) was 0 of 6.

For `Cc1c(O)/c(=C\O)c2nc3c(=O)ccc(C(=O)NCCN(C)C)c3[nH]c2c1=O`, the T/C (dose: 25.0 mg/kg/injection, schedule: Q01DX005 (ip), vehicle: other) was 131 and 135 % of control, the survivor count (dose: 30.0 mg/kg/injection, schedule: Q03HX015 (ip), vehicle: water) was 6 of 6 and the T/C (dose: 50.0 mg/kg/injection, schedule: Q01DX005 (ip), vehicle: other) was 127 % of control. For the same molecule, the survivor count (dose: 60.0 mg/kg/injection, schedule: Q03HX015 (ip), vehicle: water) was 1 of 6 and the T/C (dose: 100.0 mg/kg/injection, schedule: Q01DX005 (ip), vehicle: other) was 136 % of control.

For `OC1CC2c3ccccc3C1c1cccc[n+]12` (stereo not drawn), the survivor count (dose: 100.0 mg/kg/injection, schedule: Q01DX005 (ip), vehicle: saline) was 1 of 5 and the survivor count [1] was 0 of 5.

For `CC1(C)C2CCC(C2)C1C(=O)CCN1CCc2ccccc2C1` (stereo not drawn), the survivor count [5] was 6 of 6, the survivor count [6] was 3 of 6 and the survivor count [2] was 0 of 6.

In the case of `O=c1oc2nc(-c3ccccc3)[nH]c(=O)c2c(O)c1-c1ccccc1`, the survivor count (dose: 240.0 mg/kg/injection, schedule: Q01DX005 (ip), vehicle: Klucel (hydroxypropylcellulose) (HPC)) is reported as 3 of 6.

In the case of `CP1(=O)CC(=O)CCCCC(=O)C1`, the survivor count [5] is reported as 6 of 6.

With `CCCC[C@H]1C(=O)O[C@H](C)[C@H](NC(=O)c2cccc(NC=O)c2O)C(=O)O[C@@H](C)[C@@H]1OC(=O)CC(C)C` the survivor count (dose: 0.5 mg/kg/injection, schedule: Q01DX009 (ip), vehicle: Klucel (hydroxypropylcellulose) (HPC)) was 5 of 6, the survivor count (dose: 1.0 mg/kg/injection, schedule: Q01DX009 (ip), vehicle: Klucel (hydroxypropylcellulose) (HPC)) was 6 of 6 and the survivor count (dose: 2.0 mg/kg/injection, schedule: Q01DX009 (ip), vehicle: Klucel (hydroxypropylcellulose) (HPC)) was 0 of 6 and 4 of 6. The survivor count (dose: 4.0 mg/kg/injection, schedule: Q01DX009 (ip), vehicle: Klucel (hydroxypropylcellulose) (HPC)) was 0 of 6.

In the case of `CCn1c(Cl)c(/C=C2/N=C(c3ccccc3)OC2=O)c2ccccc21`, the survivor count [3] is reported as 6 of 6 and the survivor count (dose: 200.0 mg/kg/injection, schedule: Q01DX001 (ip), vehicle: Klucel (hydroxypropylcellulose) (HPC)) is reported as 6 of 6.

With `COc1ccc2c(c1)CCC1(C)CC(=O)C(Br)=C21` (stereo not drawn) the T/C (dose: 25.0 mg/kg/injection, schedule: Q01DX009 (ip), vehicle: Klucel (hydroxypropylcellulose) (HPC)) was 142 % of control, the survivor count (dose: 50.0 mg/kg/injection, schedule: Q01DX009 (ip), vehicle: Klucel (hydroxypropylcellulose) (HPC)) was 6 of 6 and the survivor count (dose: 100.0 mg/kg/injection, schedule: Q01DX009 (ip), vehicle: Klucel (hydroxypropylcellulose) (HPC)) was 6 of 6. For the same molecule, the survivor count (dose: 200.0 mg/kg/injection, schedule: Q01DX009 (ip), vehicle: Klucel (hydroxypropylcellulose) (HPC)) was 6 of 6.

For `O=C(NC(=S)Nc1ccsc1)c1ccccc1`, the survivor count [2] was 6 of 6.

In the case of `c1ccc(C2=NNC(c3ccccn3)=C3CCCCCCC3=N2)nc1`, the T/C (dose: 12.5 mg/kg/injection, schedule: Q01DX009 (ip), vehicle: water) is reported as 125 % of control, the survivor count (dose: 100.0 mg/kg/injection, schedule: Q01DX009 (ip), vehicle: water) is reported as 5 of 6 and the survivor count (dose: 200.0 mg/kg/injection, schedule: Q01DX009 (ip), vehicle: water) is reported as 0 of 6.

For `CNCCNc1ncc([N+](=O)[O-])s1`, the survivor count (dose: 100.0 mg/kg/injection, schedule: Q01DX001 (ip), vehicle: saline) was 4 of 6 and 6 of 6.

With `CC(C)(C)NC(=S)N/N=C/c1cc(Cl)cc(Cl)c1O` the survivor count (dose: 12.5 mg/kg/injection, schedule: Q01DX009 (ip), vehicle: saline with Tween-80) was 6 of 6, the survivor count (dose: 25.0 mg/kg/injection, schedule: Q01DX009 (ip), vehicle: saline with Tween-80) was 6 of 6 and the survivor count [5] was 6 of 6. The survivor count [6] was 6 of 6.

For `CC1(C)N=C(N)N=C(N)N1c1ccc(CCC(=O)Nc2ccc(S(=O)(=O)F)cc2)c(Cl)c1`, the survivor count (dose: 300.0 mg/kg/injection, schedule: Q04DX003 (ip), vehicle: saline with Tween-80) was 5 of 6.

In the case of `O=C1NC(O)c2cc([N+](=O)[O-])ccc2O1` (stereo not drawn), the survivor count (dose: 400.0 mg/kg/injection, schedule: Q01DX005 (ip), vehicle: saline with Tween-80) is reported as 0 of 6.

With `COc1cc(NCCCCCNC(C)(C)C)c2ncccc2c1` the survivor count [7] was 2 of 5 and the survivor count [4] was 0 of 5.

For `[NH-]CC(=O)O.[NH-]CC(=O)O.[Ni+2]`, the survivor count (dose: 25.0 mg/kg/injection, schedule: Q01DX005 (ip), vehicle: saline with Tween-80) was 6 of 6, the survivor count (dose: 50.0 mg/kg/injection, schedule: Q01DX005 (ip), vehicle: saline with Tween-80) was 1 of 6 and the survivor count [7] was 0 of 6. For the same molecule, the survivor count [4] was 0 of 6.

`O=C(Nc1ccc(C2=NCCCN2)cc1)c1ccc(NC(=O)c2ccc(C3=NCCCN3)cc2)cc1` was tested, and the T/C (dose: 3.13 mg/kg/injection, schedule: Q04DX003 (ip), vehicle: saline) was 130 % of control, the T/C (dose: 5.0 mg/kg/injection, schedule: Q04DX003 (ip), vehicle: saline with Tween-80) was 130 % of control and the T/C (dose: 6.25 mg/kg/injection, schedule: Q04DX003 (ip), vehicle: saline) was 140 % of control. For the same molecule, the T/C (dose: 10.0 mg/kg/injection, schedule: Q04DX003 (ip), vehicle: saline with Tween-80) was 130 % of control, the survivor count (dose: 20.0 mg/kg/injection, schedule: Q01DX009 (ip), vehicle: saline) was 4 of 6 and the survivor count (dose: 25.0 mg/kg/injection, schedule: Q04DX003 (ip), vehicle: saline) was 3 of 6. The survivor count (dose: 50.0 mg/kg/injection, schedule: Q04DX003 (ip), vehicle: saline) was 0 of 6, the survivor count (dose: 100.0 mg/kg/injection, schedule: Q04DX003 (ip), vehicle: saline) was 0 of 6 and the survivor count (dose: 200.0 mg/kg/injection, schedule: Q04DX003 (ip), vehicle: saline) was 0 of 6. The survivor count (dose: 400.0 mg/kg/injection, schedule: Q04DX003 (ip), vehicle: saline) was 0 of 6.

In the case of `Cc1ccc(S(=O)(=O)NN=c2cccccc2)cc1`, the survivor count (dose: 400.0 mg/kg/injection, schedule: Q01DX001 (ip), vehicle: DMSO) is reported as 0 of 6.

For `CC1=CC(=NC(=O)CBr)C=C/C1=N\S(=O)(=O)c1ccccc1`, the survivor count [5] was 3 of 6, the survivor count [6] was 0 of 6 and the survivor count [2] was 0 of 6.

`COc1ccc(-n2[nH]c3c(cnc4ccccc43)c2=O)cc1` was tested, and the survivor count (dose: 60.0 mg/kg/injection, schedule: Q01DX005 (ip), vehicle: saline with Tween-80) was 6 of 6 and the survivor count (dose: 120.0 mg/kg/injection, schedule: Q01DX005 (ip), vehicle: saline with Tween-80) was 6 of 6.
